# According to the supplement of paper PMC9254222:
# The full ranking holds about 1,100 compounds; the median of “Renilla luciferase signal (cell health) relative to plate median” is about 0.97, and the highest 2% start at about 1.6. The entries are a selection whose mix differs from that of the whole data set.
# System: HEK293T (UBE3A T485A transfected, BAR Wnt reporter)
# Assay: Renilla luciferase signal (cell health) relative to plate median (fold (linear ratio)); higher = higher Renilla signal
# Conditions: 24 h
# How it was run: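 Using Fugene 6, HEK293T cells in white 384-well plates (4500 cells/well; DMEM, 10% FBS, 37°C, 5% CO2) were transfected with a BAR firefly luciferase Wnt reporter, TK-Renilla and an expression plasmid. After four hours, robots dosed the chemicals at 0.01–100 uM, and a Dual-Glo luciferase readout followed 24 h later. Per-plate median-centred firefly/Renilla ratios gave Wnt activity, while per-plate median-centred raw Renilla signals gave cell health. Four biological replicates were averaged.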
Compound,Renilla luciferase signal (concentration: 0.01 uM),Renilla luciferase signal (concentration: 0.1 uM),Renilla luciferase signal (concentration: 1 uM),Renilla luciferase signal (concentration: 10 uM),Renilla luciferase signal (concentration: 100 uM)
CNC(=O)Oc1cccc2ccccc12 [Carbaryl],0.778,0.776,0.818,0.647,0.374
C/C(=N\C#N)N(C)Cc1ccc(Cl)nc1 [Acetamiprid],0.746,0.945,0.969,0.857,1.2
O=C(Nc1ccc2[nH]ccc2c1)c1cc2cc(F)ccc2n1Cc1cccc(F)c1,,1.07,1.02,0.543,0.0428
O=C(O)C1C2CCC(O2)C1C(=O)O (configuration not stated) [Endothal],,0.975,0.898,0.607,0.0298
CS(=O)(=O)c1cc(C(F)(F)F)ccc1C(=O)c1cnoc1C1CC1 [Isoxaflutole],0.938,0.74,0.954,0.778,2.79
COP(=S)(OC)Oc1ccc([N+](=O)[O-])cc1 [Methyl parathion],0.993,0.941,0.939,1.07,0.963
CN1C2CC(OC(=O)C(CO)c3ccccc3)CC1C1OC12 (configuration not stated) [Scopolamine],0.78,0.722,0.931,0.834,1.62
ClCCOCCCl [Bis(2-chloroethyl) ether],,1.05,0.922,0.95,1.25
CCC(C)C1OC2(C=CC1C)CC1CC(CC=C(C)C(OC3CC(OC)C(OC4CC(OC)C(O)C(C)O4)C(C)O3)C(C)C=CC=C3COC4C(O)C(C)=CC(C(=O)O1)C34O)O2 (configuration not stated) [Abamectin],0.929,1.08,0.956,0.403,0.0306
O=[N+]([O-])c1c(Cl)c(Cl)c(Cl)c(Cl)c1Cl [Pentachloronitrobenzene],1,1.06,0.927,0.981,1.34
CC1(C)C(C=C(Cl)Cl)C1C(=O)OC(C#N)c1cccc(Oc2ccccc2)c1 (configuration not stated) [Cypermethrin],1.25,1.16,1.03,1.16,0.901
"Cc1cc(-c2ccc(N)c(C)c2)ccc1N [3,3'-Dimethylbenzidine]",,0.965,1,0.918,0.872
c1ccc2c(c1)Nc1ccccc1S2 [Phenothiazine],,0.84,0.859,0.971,0.425
CC(C1CC1)C(O)(Cn1cncn1)c1ccc(Cl)cc1 (configuration not stated) [Cyproconazole],1.42,1.03,1.06,1.02,0.867
CC(C)COC(=O)c1ccccc1C(=O)OCC(C)C [Diisobutyl phthalate],,0.825,0.827,0.867,1.01
CC(C)(C)OOC(=O)c1ccccc1 [tert-Butyl perbenzoate],,1.03,1,0.978,1.1

Compound,Renilla luciferase signal (concentration: 0.01 uM),Renilla luciferase signal (concentration: 0.1 uM),Renilla luciferase signal (concentration: 1 uM),Renilla luciferase signal (concentration: 10 uM),Renilla luciferase signal (concentration: 100 uM)
CC(C)(C)c1ccc(CCOc2ncnc3ccccc23)cc1 [Fenazaquin],0.978,1.05,0.95,0.255,0.141
O=C(N[C@H]1CN2CCC1CC2)c1cc2ccoc2cn1,,1.07,1.02,0.999,0.947
CCOP(=S)(OCC)SCSC(C)(C)C [Terbufos],,0.87,0.914,0.933,1.23
Oc1ccccc1-c1ccccc1 [2-Phenylphenol],1.08,1.08,0.948,1.01,0.987
[Na+].[O-][n+]1ccccc1[S-] [Sodium (2-pyridylthio)-N-oxide],,1.06,0.913,1.01,0.0174
Nc1ccc2ccccc2c1 [2-Naphthylamine],,1.07,0.945,0.947,0.792
Clc1ccc(C(c2ccc(Cl)cc2)C(Cl)(Cl)Cl)cc1,,0.841,0.863,0.92,0.995
Cc1nn(-c2cc(NS(C)(=O)=O)c(Cl)cc2Cl)c(=O)n1C(F)F [Sulfentrazone],1.01,1.05,0.889,1.04,1.21
Oc1ccc(C(c2ccc(O)cc2)(C(F)(F)F)C(F)(F)F)cc1 [Bisphenol AF],,1.13,0.983,0.958,0.176
CCCCCCCCn1sccc1=O [Octhilinone],,0.906,0.835,0.471,0.0285
Cc1cnc(C2=NC(=O)C(C)(C(C)C)N2)c(C(=O)O)c1 (configuration not stated) [Imazapic],1.11,1.17,1.18,1.14,1.72
c1ccc(N=Nc2ccccc2)cc1 [Azobenzene],,0.917,0.96,0.998,1.29
CCCSC(=O)N(CCC)CCC [Vernolate],,0.745,0.776,0.829,1.32
COCC(=O)N(c1c(C)cccc1C)C(C)C(=O)OC (configuration not stated) [Metalaxyl],0.822,1.05,1.14,1.22,1.42
COc1cc(C=O)cc2c1[C@H](COC(N)=O)[C@]1(OC(C)=O)ON2C[C@H]2[C@@H]1N2C(C)=O,,0.566,0.0435,0.0233,0.0248
CCOc1cccc([C@]2(N3CCN(c4ccccc4)CC3)CC[C@@H](C)CC2)c1.CS(=O)(=O)O,,1.04,0.985,1.13,0.84

# Arranged by formula weight (falling): three of the compounds above.
Compound,Renilla luciferase signal (concentration: 0.01 uM),Renilla luciferase signal (concentration: 0.1 uM),Renilla luciferase signal (concentration: 1 uM),Renilla luciferase signal (concentration: 10 uM),Renilla luciferase signal (concentration: 100 uM)
Clc1ccc(C(c2ccc(Cl)cc2)C(Cl)(Cl)Cl)cc1,,0.841,0.863,0.92,0.995
COCC(=O)N(c1c(C)cccc1C)C(C)C(=O)OC (configuration not stated) [Metalaxyl],0.822,1.05,1.14,1.22,1.42
CCCSC(=O)N(CCC)CCC [Vernolate],,0.745,0.776,0.829,1.32
